Results are given in words; binding and its absence hold for the method and conditions named. Some results given as binding are weak or reduced against the parent protein; the word gives no strength. Where a sequence is shown, tags or fusion partners need not be part of it.
How the values were obtained:
[1] = target: T1, APN isolated from porcine kidney (Sigma, cat. No. L6007-50UN), coated on ELISA plates (pig) (UniProt P15145); test: ELISA on coated kidney APN, culture supernatant, three-fold dilution series
T1 sequence (looked up): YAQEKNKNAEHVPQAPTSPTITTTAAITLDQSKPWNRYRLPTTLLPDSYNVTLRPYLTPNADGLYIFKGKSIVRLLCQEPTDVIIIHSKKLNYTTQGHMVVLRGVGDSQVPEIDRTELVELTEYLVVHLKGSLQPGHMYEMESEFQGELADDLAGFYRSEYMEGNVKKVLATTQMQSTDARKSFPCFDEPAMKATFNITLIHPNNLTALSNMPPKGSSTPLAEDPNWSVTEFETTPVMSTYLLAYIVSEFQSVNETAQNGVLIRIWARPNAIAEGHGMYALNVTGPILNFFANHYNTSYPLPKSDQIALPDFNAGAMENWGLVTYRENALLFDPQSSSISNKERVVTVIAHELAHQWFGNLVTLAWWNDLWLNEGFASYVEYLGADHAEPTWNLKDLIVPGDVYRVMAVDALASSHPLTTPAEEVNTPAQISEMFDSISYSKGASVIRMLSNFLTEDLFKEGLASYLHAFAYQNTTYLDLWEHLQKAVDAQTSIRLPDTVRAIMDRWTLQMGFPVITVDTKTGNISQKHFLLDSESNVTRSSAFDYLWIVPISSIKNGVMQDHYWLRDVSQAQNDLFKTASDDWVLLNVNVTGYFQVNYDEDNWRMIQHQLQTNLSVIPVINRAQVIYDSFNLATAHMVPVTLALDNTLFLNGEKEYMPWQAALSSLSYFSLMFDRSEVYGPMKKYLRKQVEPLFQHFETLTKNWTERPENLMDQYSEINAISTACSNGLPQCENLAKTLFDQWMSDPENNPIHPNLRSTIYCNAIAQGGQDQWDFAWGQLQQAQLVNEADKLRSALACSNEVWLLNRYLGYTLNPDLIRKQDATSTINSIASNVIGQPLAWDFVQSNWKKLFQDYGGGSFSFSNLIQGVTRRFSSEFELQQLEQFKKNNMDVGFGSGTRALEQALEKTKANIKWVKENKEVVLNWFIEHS

[2] = target: T2, porcine aminopeptidase N (pAPN), full-length, expressed on the membrane of APN-transfected BHK21 and IPEC-J2 cells (Sus scrofa (pig)) (UniProt P15145); test: endocytosis assay on APN-expressing BHK21 cells, confocal imaging
T2 sequence (looked up): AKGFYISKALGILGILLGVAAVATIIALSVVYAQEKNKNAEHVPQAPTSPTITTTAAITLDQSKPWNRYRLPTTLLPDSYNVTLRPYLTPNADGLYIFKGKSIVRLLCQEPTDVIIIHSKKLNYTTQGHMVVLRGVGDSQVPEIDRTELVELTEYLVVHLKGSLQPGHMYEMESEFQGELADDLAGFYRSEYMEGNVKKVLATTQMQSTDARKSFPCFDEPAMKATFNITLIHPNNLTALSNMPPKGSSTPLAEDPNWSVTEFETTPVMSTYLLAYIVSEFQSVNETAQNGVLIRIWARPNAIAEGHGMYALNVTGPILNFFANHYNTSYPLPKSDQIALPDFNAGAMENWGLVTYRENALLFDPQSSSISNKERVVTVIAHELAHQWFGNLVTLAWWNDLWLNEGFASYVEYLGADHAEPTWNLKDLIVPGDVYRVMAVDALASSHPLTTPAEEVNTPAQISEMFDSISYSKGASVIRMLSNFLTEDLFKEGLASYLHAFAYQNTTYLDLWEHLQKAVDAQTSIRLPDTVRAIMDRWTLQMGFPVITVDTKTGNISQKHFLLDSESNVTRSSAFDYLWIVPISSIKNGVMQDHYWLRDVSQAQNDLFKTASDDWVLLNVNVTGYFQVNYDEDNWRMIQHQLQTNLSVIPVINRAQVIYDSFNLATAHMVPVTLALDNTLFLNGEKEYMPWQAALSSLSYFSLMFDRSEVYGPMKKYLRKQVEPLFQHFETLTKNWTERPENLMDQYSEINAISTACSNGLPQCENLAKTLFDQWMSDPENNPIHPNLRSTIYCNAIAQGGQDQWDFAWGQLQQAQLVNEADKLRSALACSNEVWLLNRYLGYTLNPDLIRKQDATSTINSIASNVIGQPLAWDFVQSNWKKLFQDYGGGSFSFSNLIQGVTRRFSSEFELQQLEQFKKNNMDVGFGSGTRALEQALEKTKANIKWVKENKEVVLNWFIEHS

[3] = target: T2, porcine aminopeptidase N (pAPN), full-length, expressed on the membrane of APN-transfected BHK21 and IPEC-J2 cells (Sus scrofa (pig)); test: flow cytometry on APN-expressing cells, purified VHH-MG
[4] = target: T2, porcine aminopeptidase N (pAPN), full-length, expressed on the membrane of APN-transfected BHK21 and IPEC-J2 cells (Sus scrofa (pig)); test: immunohistochemistry on porcine ileum cryosections
[5] = target: T2, porcine aminopeptidase N (pAPN), full-length, expressed on the membrane of APN-transfected BHK21 and IPEC-J2 cells (Sus scrofa (pig)); test: gut ligated loop assay in piglet jejunum, immunohistochemistry
[6] = target: T2, porcine aminopeptidase N (pAPN), full-length, expressed on the membrane of APN-transfected BHK21 and IPEC-J2 cells (Sus scrofa (pig)); test: flow cytometry of crude periplasmic extracts on pAPN-expressing BHK21 cells

Measured: binding

B1: 3L94-MG (3L94 VHH fused to the Fc domain of mouse IgG2a) (Fc fusion)
chain: QVQLQESGGGLVQPGDSLRLSCAASGRTFSTYAMGWFRQAPGKEREFVAYISQLSLSTKYADSVKGRFTVSRDDAQNTLYLQMNSLRPEDTAVYYCATRSQNYVTTYDQSRAYDYWGQGTQVTVSSEPRGPTIKPCPPCKCPAPNLLGGPSVFIFPPKIKDVLMISLSPIVTCVVVDVSEDDPDVQISWFVNNVEVHTAQTQTHREDYNSTLRVVSALPIQHQDWMSGKEFKCKVNNKDLPAPIERTISKPKGSVRAPQVYVLPPPEEEMTKKQVTLTCMVTDFMPEDIYVEWTNNGKTELNYKNTEPVLDSDGSYFMYSKLRVEKKNWVERNSYSCSVVHEGLHNHHTTKSFSRTPGK
modifications: Disulfide-linked homodimer of this chain.
not listed: [6]
binds: all other assays above

B2: 3L94 VHH (crude periplasmic extract, pMECS, HA and His6 tag) (VHH)
VHH: QVQLQESGGGLVQPGDSLRLSCAASGRTFSTYAMGWFRQAPGKEREFVAYISQLSLSTKYADSVKGRFTVSRDDAQNTLYLQMNSLRPEDTAVYYCATRSQNYVTTYDQSRAYDYWGQGTQVTVSS
binds: [6]
